# The supplement of paper PMC6411743
# Sequences of proteins named here, by UniProt entry; tags and fusion partners are left off. A change or cut given only in a name is not applied to a line headed by its entry.
# UniProt Q5JTD0: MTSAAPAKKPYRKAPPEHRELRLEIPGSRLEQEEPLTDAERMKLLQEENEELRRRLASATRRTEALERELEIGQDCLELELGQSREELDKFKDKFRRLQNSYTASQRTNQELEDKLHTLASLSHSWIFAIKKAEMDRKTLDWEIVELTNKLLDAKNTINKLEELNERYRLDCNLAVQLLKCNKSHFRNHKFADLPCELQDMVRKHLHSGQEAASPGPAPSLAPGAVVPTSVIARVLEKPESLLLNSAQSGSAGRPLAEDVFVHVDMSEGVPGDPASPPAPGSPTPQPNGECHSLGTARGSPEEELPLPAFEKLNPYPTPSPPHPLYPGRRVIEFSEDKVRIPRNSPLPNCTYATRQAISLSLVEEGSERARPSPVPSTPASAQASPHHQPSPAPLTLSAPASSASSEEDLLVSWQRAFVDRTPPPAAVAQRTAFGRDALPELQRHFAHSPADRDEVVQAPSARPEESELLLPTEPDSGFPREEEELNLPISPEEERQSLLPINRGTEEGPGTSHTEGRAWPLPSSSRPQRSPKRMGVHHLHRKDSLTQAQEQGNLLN
# UniProt Q6IEG0: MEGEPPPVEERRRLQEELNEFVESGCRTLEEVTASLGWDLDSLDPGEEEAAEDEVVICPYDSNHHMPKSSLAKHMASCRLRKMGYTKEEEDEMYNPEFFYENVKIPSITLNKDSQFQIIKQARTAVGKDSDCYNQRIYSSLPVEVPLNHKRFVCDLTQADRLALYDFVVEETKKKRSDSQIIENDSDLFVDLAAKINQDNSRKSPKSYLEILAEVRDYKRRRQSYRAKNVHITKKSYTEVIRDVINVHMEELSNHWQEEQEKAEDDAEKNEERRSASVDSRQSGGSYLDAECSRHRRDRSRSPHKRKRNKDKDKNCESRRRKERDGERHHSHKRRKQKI
# UniProt Q69YN4: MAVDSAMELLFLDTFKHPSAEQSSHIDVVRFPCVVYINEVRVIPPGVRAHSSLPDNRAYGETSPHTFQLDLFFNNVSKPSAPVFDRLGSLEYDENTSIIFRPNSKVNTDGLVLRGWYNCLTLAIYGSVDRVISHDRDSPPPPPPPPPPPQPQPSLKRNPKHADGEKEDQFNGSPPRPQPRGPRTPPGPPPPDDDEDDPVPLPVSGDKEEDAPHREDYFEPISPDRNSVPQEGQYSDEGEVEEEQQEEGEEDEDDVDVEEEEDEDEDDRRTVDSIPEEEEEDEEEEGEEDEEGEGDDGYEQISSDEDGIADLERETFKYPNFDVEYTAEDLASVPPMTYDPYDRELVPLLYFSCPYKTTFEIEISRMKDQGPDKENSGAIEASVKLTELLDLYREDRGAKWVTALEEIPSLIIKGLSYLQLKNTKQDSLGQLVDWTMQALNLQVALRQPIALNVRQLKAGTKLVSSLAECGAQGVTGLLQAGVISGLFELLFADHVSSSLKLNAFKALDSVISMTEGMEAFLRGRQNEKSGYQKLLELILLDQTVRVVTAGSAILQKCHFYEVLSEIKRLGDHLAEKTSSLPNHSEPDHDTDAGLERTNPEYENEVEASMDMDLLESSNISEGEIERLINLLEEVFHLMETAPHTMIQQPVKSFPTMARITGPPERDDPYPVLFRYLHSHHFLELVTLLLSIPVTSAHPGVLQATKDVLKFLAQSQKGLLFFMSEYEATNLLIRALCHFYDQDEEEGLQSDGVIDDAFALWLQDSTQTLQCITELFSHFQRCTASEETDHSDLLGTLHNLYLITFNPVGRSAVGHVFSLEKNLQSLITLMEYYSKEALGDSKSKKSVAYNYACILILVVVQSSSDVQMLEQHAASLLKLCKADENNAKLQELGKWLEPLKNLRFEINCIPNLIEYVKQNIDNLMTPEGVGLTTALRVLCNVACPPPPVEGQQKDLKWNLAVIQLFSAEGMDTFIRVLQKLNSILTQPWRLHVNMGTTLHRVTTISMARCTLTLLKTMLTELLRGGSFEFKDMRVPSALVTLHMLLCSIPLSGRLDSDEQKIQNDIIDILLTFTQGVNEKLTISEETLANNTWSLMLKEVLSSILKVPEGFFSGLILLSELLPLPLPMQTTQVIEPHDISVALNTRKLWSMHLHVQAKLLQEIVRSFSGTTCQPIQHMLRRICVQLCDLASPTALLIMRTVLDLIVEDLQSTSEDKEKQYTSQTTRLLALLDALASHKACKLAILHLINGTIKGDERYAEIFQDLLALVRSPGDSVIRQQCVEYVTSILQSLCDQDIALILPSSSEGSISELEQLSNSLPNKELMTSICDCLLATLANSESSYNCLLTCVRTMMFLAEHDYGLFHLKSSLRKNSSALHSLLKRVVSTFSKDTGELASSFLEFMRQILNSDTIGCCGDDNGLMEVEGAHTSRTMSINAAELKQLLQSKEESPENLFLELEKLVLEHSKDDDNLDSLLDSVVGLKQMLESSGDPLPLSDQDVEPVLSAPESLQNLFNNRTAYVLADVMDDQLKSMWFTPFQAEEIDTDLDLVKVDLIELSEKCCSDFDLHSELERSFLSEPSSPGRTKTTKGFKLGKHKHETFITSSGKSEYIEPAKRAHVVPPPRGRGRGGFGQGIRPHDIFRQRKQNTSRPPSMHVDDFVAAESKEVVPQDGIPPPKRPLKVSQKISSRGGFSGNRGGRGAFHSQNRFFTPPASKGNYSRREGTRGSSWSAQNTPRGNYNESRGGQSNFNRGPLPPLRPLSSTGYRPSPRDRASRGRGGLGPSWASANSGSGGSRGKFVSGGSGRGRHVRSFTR
# UniProt Q5FBB7: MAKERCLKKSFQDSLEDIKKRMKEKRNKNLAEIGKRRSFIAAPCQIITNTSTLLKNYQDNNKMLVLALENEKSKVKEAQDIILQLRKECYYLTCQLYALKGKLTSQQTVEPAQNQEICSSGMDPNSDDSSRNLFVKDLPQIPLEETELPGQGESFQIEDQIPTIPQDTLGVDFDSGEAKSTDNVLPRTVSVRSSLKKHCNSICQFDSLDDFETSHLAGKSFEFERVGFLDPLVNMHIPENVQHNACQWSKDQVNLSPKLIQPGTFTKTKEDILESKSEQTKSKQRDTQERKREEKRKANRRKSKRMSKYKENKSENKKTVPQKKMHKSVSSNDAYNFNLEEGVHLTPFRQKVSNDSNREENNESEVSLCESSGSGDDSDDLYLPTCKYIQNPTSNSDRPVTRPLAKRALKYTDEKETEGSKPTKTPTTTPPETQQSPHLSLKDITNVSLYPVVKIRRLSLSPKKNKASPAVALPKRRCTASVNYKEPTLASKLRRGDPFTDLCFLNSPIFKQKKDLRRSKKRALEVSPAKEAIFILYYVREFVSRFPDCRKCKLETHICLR
# UniProt Q6FIF0: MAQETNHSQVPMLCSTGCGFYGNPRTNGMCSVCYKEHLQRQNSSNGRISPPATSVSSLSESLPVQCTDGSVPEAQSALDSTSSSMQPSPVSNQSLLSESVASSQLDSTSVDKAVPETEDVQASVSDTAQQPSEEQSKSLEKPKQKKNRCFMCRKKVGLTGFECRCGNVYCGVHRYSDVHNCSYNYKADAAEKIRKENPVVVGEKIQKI
# UniProt Q6N063: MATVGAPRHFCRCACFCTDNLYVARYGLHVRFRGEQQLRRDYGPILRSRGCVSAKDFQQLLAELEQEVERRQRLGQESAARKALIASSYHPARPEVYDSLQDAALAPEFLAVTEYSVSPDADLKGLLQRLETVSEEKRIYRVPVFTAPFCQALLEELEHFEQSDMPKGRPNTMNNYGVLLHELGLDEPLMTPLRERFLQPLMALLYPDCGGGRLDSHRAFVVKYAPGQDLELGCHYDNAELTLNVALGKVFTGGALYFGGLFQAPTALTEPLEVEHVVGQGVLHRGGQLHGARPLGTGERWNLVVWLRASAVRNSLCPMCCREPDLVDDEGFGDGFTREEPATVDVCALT
# UniProt Q5VSY0: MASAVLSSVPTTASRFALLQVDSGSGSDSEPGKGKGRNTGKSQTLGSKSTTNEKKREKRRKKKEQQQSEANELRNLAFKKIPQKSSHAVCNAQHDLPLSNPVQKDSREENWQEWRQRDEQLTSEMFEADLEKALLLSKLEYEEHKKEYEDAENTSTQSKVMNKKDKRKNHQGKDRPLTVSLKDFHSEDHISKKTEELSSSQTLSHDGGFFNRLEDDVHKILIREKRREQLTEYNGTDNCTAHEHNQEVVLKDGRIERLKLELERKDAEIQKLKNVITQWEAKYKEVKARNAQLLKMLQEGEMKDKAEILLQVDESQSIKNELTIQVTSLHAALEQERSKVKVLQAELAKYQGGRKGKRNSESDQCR
# UniProt Q5VT52: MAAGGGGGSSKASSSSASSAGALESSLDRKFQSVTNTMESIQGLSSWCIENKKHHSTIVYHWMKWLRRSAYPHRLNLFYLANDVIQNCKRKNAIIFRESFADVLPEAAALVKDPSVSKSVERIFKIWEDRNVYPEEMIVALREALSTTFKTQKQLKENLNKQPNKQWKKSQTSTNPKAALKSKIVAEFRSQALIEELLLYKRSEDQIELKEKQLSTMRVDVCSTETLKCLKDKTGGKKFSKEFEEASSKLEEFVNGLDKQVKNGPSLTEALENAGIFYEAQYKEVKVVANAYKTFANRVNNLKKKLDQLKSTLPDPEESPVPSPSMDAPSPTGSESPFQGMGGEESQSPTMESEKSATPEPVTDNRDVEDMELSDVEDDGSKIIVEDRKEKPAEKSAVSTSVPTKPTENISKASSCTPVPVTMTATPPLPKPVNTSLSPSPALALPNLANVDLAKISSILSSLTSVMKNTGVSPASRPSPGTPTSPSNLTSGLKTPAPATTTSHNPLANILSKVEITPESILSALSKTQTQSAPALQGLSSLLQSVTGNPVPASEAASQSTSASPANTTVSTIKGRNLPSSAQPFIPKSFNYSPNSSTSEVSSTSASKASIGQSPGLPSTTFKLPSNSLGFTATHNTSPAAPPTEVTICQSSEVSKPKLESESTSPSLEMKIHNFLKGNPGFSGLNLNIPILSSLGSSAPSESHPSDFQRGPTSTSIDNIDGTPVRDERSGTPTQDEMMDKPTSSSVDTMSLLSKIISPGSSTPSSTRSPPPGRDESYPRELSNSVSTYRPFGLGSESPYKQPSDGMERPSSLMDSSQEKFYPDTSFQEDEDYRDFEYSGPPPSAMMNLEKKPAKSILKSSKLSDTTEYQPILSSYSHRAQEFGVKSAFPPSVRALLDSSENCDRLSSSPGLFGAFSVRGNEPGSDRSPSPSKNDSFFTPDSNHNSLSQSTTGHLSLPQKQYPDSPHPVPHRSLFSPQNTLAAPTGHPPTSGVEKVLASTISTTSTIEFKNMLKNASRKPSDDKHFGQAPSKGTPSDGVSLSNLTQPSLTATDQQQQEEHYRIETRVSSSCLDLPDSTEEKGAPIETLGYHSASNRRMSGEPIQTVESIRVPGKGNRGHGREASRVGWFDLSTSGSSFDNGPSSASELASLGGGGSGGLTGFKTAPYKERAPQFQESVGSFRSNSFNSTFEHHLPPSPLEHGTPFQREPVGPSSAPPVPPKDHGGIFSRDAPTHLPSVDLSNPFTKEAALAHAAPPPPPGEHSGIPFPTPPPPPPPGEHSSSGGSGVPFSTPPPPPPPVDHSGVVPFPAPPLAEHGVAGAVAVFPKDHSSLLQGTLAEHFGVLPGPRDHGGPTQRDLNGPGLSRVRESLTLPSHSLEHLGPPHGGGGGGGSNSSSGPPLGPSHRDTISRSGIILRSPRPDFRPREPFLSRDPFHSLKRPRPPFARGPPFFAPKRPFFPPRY
# UniProt Q5FWF5: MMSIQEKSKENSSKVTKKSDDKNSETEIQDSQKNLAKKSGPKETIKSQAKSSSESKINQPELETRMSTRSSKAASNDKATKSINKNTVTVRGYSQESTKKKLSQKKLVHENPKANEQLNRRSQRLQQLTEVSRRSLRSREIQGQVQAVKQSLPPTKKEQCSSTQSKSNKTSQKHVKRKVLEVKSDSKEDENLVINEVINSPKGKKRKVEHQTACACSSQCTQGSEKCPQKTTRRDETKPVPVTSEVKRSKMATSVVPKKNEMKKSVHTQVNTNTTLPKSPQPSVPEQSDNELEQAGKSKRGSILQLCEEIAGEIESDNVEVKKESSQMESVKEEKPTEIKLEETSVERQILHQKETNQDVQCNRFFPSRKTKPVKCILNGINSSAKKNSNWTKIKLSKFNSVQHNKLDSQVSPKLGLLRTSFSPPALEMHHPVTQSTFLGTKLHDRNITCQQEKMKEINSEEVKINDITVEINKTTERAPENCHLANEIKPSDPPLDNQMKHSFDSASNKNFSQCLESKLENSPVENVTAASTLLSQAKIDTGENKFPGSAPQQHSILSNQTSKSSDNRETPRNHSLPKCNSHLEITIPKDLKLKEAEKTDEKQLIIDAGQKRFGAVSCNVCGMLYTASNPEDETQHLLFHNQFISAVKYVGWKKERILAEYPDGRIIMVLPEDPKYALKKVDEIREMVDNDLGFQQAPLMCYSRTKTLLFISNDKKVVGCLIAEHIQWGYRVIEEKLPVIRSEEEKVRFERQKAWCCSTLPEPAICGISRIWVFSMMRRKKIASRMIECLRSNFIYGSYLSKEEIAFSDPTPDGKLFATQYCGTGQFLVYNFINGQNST
# ± gives the standard deviation of the averaged measurements. This is a selection; strong and weak results do not stand in their true shares.
# Compound: Nc1ncnc2c1ncn2[C@@H]1O[C@H](COP(=O)(O)OP(=O)(O)OP(=O)(O)O)[C@@H](O)[C@H]1O [adenosine triphosphate]
# Test: NP40-soluble protein abundance relative to vehicle (solubility fold change) (ratio); higher = more soluble protein in presence of ATP
# Procedure, shortened: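 Jurkat crude lysate (Dounce-homogenised) was treated with eight concentrations from 0.1 to 10 mM for 10 min at room temperature, then 3 min at 37 °C. It was solubilised with 0.8% NP40 and benzonase (60 min, 4 °C) and ultracentrifuged, and the supernatant was TMT-labelled for LC-MS/MS. Intensities were vsn-normalised, and the value is the fold change against the NP40-processed vehicle per replicate, from three independent experiments.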
Target,NP40-soluble protein abundance (concentration: 1mM),NP40-soluble protein abundance (concentration: 2mM),NP40-soluble protein abundance (concentration: 4mM),NP40-soluble protein abundance (concentration: 6mM),NP40-soluble protein abundance (concentration: 8mM),NP40-soluble protein abundance (concentration: 10mM)
UniProt Q5T4S7 and related entries,1.02 ± 0.045,0.9713 ± 0.0059,0.949 ± 0.017,0.922 ± 0.093,0.977 ± 0.078,0.961 ± 0.064
UniProt Q5JTD0 and related entries,0.926 ± 0.052,0.971 ± 0.033,0.953 ± 0.038,0.947 ± 0.043,0.901 ± 0.056,0.921 ± 0.057
NOL9 (UniProt Q5SY16),1 ± 0.081,0.959 ± 0.068,0.969 ± 0.016,0.838 ± 0.029,0.934 ± 0.049,0.947 ± 0.061
SNRNP48 (UniProt Q6IEG0),1.22 ± 0.12,1.27 ± 0.15,1.35 ± 0.15,1.47 ± 0.22,1.44 ± 0.24,1.54 ± 0.2
UniProt Q5JSH3 and related entries,0.945 ± 0.036,0.961 ± 0.027,0.945 ± 0.016,0.957 ± 0.035,0.909 ± 0.016,0.938 ± 0.017
LPCAT4 (UniProt Q643R3),1.02 ± 0.084,0.966 ± 0.067,1.03 ± 0.07,0.956 ± 0.065,0.998 ± 0.033,1.02 ± 0.072
UniProt Q69YN4 and related entries,1.08 ± 0.038,1.1 ± 0.017,1.12 ± 0.028,1.11 ± 0.02,1.13 ± 0.037,1.17 ± 0.051
UniProt Q5FBB7 and related entries,1.01 ± 0.053,1.034 ± 0.0075,0.983 ± 0.044,1.09 ± 0.024,0.902 ± 0.044,0.898 ± 0.096
UniProt Q6FIF0 and related entries,0.969 ± 0.1,0.955 ± 0.051,0.967 ± 0.028,0.983 ± 0.0099,0.918 ± 0.022,0.913 ± 0.045
Q5VV50 and related entries (UniProt Q5VV52),1.1 ± 0.014,1.12 ± 0.058,1.16 ± 0.037,1.29 ± 0.096,1.26 ± 0.053,1.24 ± 0.062
OGFOD2 (UniProt Q6N063),1.04 ± 0.048,0.97 ± 0.12,0.985 ± 0.045,0.97 ± 0.12,0.981 ± 0.14,0.949 ± 0.074
GKAP1 (UniProt Q5VSY0),1.07 ± 0.093,1.16 ± 0.17,1.16 ± 0.12,1.24 ± 0.12,1.31 ± 0.25,1.29 ± 0.16
TTC27 (UniProt Q6P3X3),0.994 ± 0.089,0.99 ± 0.043,0.984 ± 0.029,0.953 ± 0.12,1 ± 0.1,0.98 ± 0.051
RPRD2 (UniProt Q5VT52),1.04 ± 0.059,1.04 ± 0.042,1.05 ± 0.043,1.08 ± 0.058,1.04 ± 0.041,1.04 ± 0.02
UniProt Q5FWF5,1.14 ± 0.11,1.27 ± 0.23,1.27 ± 0.26,1.34 ± 0.32,1.35 ± 0.26,1.44 ± 0.36

# Four entries from above, with tabs:
Target	NP40-soluble protein abundance (concentration: 1mM)	NP40-soluble protein abundance (concentration: 2mM)	NP40-soluble protein abundance (concentration: 4mM)	NP40-soluble protein abundance (concentration: 6mM)	NP40-soluble protein abundance (concentration: 8mM)	NP40-soluble protein abundance (concentration: 10mM)
GKAP1 (UniProt Q5VSY0)	1.07 ± 0.093	1.16 ± 0.17	1.16 ± 0.12	1.24 ± 0.12	1.31 ± 0.25	1.29 ± 0.16
TTC27 (UniProt Q6P3X3)	0.994 ± 0.089	0.99 ± 0.043	0.984 ± 0.029	0.953 ± 0.12	1 ± 0.1	0.98 ± 0.051
RPRD2 (UniProt Q5VT52)	1.04 ± 0.059	1.04 ± 0.042	1.05 ± 0.043	1.08 ± 0.058	1.04 ± 0.041	1.04 ± 0.02
UniProt Q5FWF5	1.14 ± 0.11	1.27 ± 0.23	1.27 ± 0.26	1.34 ± 0.32	1.35 ± 0.26	1.44 ± 0.36
